From publication PMC7819943, “Rice protein-binding microarrays: a tool to detect cis-acting elements near promoter regions in rice”
The list shows a part of the results.

Chains of the proteins cited; added tags and fusions are not shown.
UniProt Q0JBA9, entry or part of it: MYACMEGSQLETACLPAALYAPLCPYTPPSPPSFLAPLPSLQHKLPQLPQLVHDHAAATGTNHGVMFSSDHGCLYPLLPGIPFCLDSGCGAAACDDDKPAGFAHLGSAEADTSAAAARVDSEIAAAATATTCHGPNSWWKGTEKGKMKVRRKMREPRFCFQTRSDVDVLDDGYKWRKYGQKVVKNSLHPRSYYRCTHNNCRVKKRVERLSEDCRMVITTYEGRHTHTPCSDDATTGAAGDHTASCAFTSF

These sequences were tested against OsWRKY34 (Oryza sativa, UniProt Q0JBA9 1-250) (assay: protein-binding microarray (RPBM); PBS, 2% BSA, 51.3 ng/ul salmon testes DNA, 50 uM zinc acetate, 200 nM TF, 25 C, 1 h; high values mean tight binding). Conditions: protein: recombinant; tags: N-terminal polyhistidine and DsRed monomer fusion (pET32a); label: CyDye5-dUTP incorporated in the synthesized complementary strand; 3' TTTTT single-stranded linker to array surface; dsDNA, one strand shown.
In short: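 Binding signal here means per-feature fluorescence intensity in arbitrary units. The values were read on an Axon 4000B scanner after a custom Agilent array, double-stranded by primer extension with Cy5-dUTP, was incubated with 200 nM protein at 25 °C for 1 h in PBS with 2% BSA, salmon testes DNA and 50 µM zinc acetate, then washed. The proteins were transcription factors with an N-terminal polyhistidine tag and DsRed, expressed in E. coli BL21-CodonPlus and purified on Ni–NTA.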

Sequence | binding signal
ACACATCCCTCCGGCATAATTCATTTTTTCCTTTACTATTCGGAGTCACCTAGTGCAG | 9620 fluorescence intensity (a.u.)
AACCCTGGATTTCAGTGTCCAACGTTTAACCGTCCATCTTCGGAGTCACCTAGTGCAG | 9390 fluorescence intensity (a.u.)
GCCGCTGCCGGCCGCCGACCGCCGACCGCCGGTGCGCACCCGGAGTCACCTAGTGCAG | 8770 fluorescence intensity (a.u.)
TATCATGCACTCCTTTTTTTTCTCTTTTTTTGCAAAACCTCGGAGTCACCTAGTGCAG | 8180 fluorescence intensity (a.u.)
ACATACTCACGCTTGCCCGGGAACCTCTCGTAGCCTCACACGGAGTCACCTAGTGCAG | 11100 fluorescence intensity (a.u.)
TTGTAGATTGTTTAGGGATTGTTGTGTTGTTGTTCATTATCGGAGTCACCTAGTGCAG | 8100 fluorescence intensity (a.u.)
ACGAACGTGATGCTTTTTTTTCGAGCAGTTTTAATAATATCGGAGTCACCTAGTGCAG | 8500 fluorescence intensity (a.u.)
CTTCTCCTAACCTCCTTTGATCGTTCGTTGGTTTGTTTTTCGGAGTCACCTAGTGCAG | 13300 fluorescence intensity (a.u.)
TTATTGCTCGTGCATGCCTCGGTTGGTCCGACATTTTCATCGGAGTCACCTAGTGCAG | 9530 fluorescence intensity (a.u.)
CCATCAAATAATCATCTTTAGTGAGTTACCTTTTGCTTTCCGGAGTCACCTAGTGCAG | 8970 fluorescence intensity (a.u.)
GGTTTTGATAGTTGAGGGATATGTTGTGTCCGGTTTTCTACGGAGTCACCTAGTGCAG | 10500 fluorescence intensity (a.u.)
AGTCGCCTCCTCGCACCTACTACCCTACTAGGTCATGCCACGGAGTCACCTAGTGCAG | 8660 fluorescence intensity (a.u.)
TGAGTTTTTGATTGCAACGTTTGACCACTCGTTTTATTCACGGAGTCACCTAGTGCAG | 12800 fluorescence intensity (a.u.)
CACTCCGGTCGTCTTCCTCGTGACCTCGTCAAGTCCTCAGCGGAGTCACCTAGTGCAG | 8480 fluorescence intensity (a.u.)
TTAATCGGTGTTGCGCCAGAGGCCGCGTCTTGAGCTTGCTCGGAGTCACCTAGTGCAG | 8940 fluorescence intensity (a.u.)
ATCGATGATGCATTCCTTTCTTTTCTGACAGTAGTGATATCGGAGTCACCTAGTGCAG | 9550 fluorescence intensity (a.u.)
CACTCATAGATATGCTTCTCTCACAGGTCTATATATTGGCCGGAGTCACCTAGTGCAG | 8450 fluorescence intensity (a.u.)
TTGGCTCGAGGCGGGGCTGGTTGGTTGGTTGGTTTGGTGGCGGAGTCACCTAGTGCAG | 14600 fluorescence intensity (a.u.)
AACCTTGCTTTTGGCTGTGTTTAGTTCCACCGATAAAAAACGGAGTCACCTAGTGCAG | 8250 fluorescence intensity (a.u.)
TTGTCGTTGTTGTTCATGCCATTTTTCTGAAGTGAAAGATCGGAGTCACCTAGTGCAG | 9670 fluorescence intensity (a.u.)
AATAAGACGAACGGTCAAATATATTTAAAAAAGTCAACGGCGGAGTCACCTAGTGCAG | 10500 fluorescence intensity (a.u.)

Taken from above:
In binding signal, CACTCCGGTCGTCTTCCTCGTGACCTCGTCAAGTCCTCAGCGGAGTCACCTAGTGCAG has the entry 8480 fluorescence intensity (a.u.)
In binding signal, TTGTAGATTGTTTAGGGATTGTTGTGTTGTTGTTCATTATCGGAGTCACCTAGTGCAG has the entry 8100 fluorescence intensity (a.u.)

Additional results follow.

Sequence | binding signal
GTTGTTAATGTACATCCATCATGATTTCCAATTCAGTTTCCGGAGTCACCTAGTGCAG | 9050 fluorescence intensity (a.u.)
GGTCGATTACTTCTAGTTTGTATTCTAGTGTAATTATTTCCGGAGTCACCTAGTGCAG | 9250 fluorescence intensity (a.u.)
ATCTAGCAGACTTTGGCTATGTACTAAACTCATTTTTTTTCGGAGTCACCTAGTGCAG | 9140 fluorescence intensity (a.u.)
TAAAACTACTCATTTTGGGCCCTGTTTCATCGTTTCTTCTCGGAGTCACCTAGTGCAG | 11200 fluorescence intensity (a.u.)
GTTGACTTTTTAGCACGTGTTTGACCGTTCGTCTTATTAACGGAGTCACCTAGTGCAG | 9780 fluorescence intensity (a.u.)
CAGCCCATTTCAGTCCATTTCCTCTCTCTCTCTCTCTCTCCGGAGTCACCTAGTGCAG | 8780 fluorescence intensity (a.u.)
ATGGTGGTTGTGTCTTATATTTTGGAATGGAGGGACTTATCGGAGTCACCTAGTGCAG | 10500 fluorescence intensity (a.u.)
AATATATTTTATCTAATTTCACGGTATATGTACCTGTCATCGGAGTCACCTAGTGCAG | 8560 fluorescence intensity (a.u.)
TGCCGCTCTACCGTCTTCTCGTCTCACGCGACGTGTCGTACGGAGTCACCTAGTGCAG | 8970 fluorescence intensity (a.u.)
TTTACACGTAATCTGTGTAATTGGTTTTTTCGCCTACATTCGGAGTCACCTAGTGCAG | 10200 fluorescence intensity (a.u.)
GATGTTTCCGGCTGGGGTTCTTGAGGCGTTTTGAAGAGGACGGAGTCACCTAGTGCAG | 10200 fluorescence intensity (a.u.)
CACCATTCGAAACACCCTCTTTTCTATTCTCGCTTAGCTACGGAGTCACCTAGTGCAG | 8230 fluorescence intensity (a.u.)
GGTTCGCTCTCTCCGTCTCTCTGCTATGCCCCTCTCTTTCCGGAGTCACCTAGTGCAG | 11500 fluorescence intensity (a.u.)
TACCGTAAAGTTCTCTCTCTCTTTTTATATTGCATGACCACGGAGTCACCTAGTGCAG | 9710 fluorescence intensity (a.u.)
CATTTTCTCGTAAGTGTACCTTTCATTTTTTTTATGCTCACGGAGTCACCTAGTGCAG | 8610 fluorescence intensity (a.u.)
AAGGATATAGTTTGCATTGGTTTTGATAGTTGGAGGAGTCCGGAGTCACCTAGTGCAG | 9850 fluorescence intensity (a.u.)
TATATGCCATTGATCCAAATTTGCACACCCTCTCATGCCACGGAGTCACCTAGTGCAG | 11800 fluorescence intensity (a.u.)
GCAAACGATATCCATCGCACTACTCGTCTCGTCTACTCCTCGGAGTCACCTAGTGCAG | 8200 fluorescence intensity (a.u.)
TTGTACAAGTATCAGCTGAGCTCCTCGTCCTCGTCTTCTTCGGAGTCACCTAGTGCAG | 8510 fluorescence intensity (a.u.)
TCAGTGTGTGTGTGTCGTGCTGCTGCATGTGTGCGTCGTACGGAGTCACCTAGTGCAG | 9890 fluorescence intensity (a.u.)
TTCCATACCATATGTACCTTCCAACATTTTGTTCTATCCACGGAGTCACCTAGTGCAG | 10600 fluorescence intensity (a.u.)
